Some of these results come from one statement about several compounds together. At least one compound was matched to its structure with a doubt left.
Test system: P. gingivalis-elicited leukocyte infiltration
Test: P. gingivalis-elicited leukocyte infiltration into murine dorsal air pouch
Format: in vivo, BALB/c mice
Conditions: 10 μg/pouch, then viable P. gingivalis, 4 hr

SMILES | decrease of leukocytes within the exudates
O=C(O)CCC[C@H](O)[C@H](O)/C=C/C=C/C=C\C=C\[C@@H](O)COc1ccccc1 [16-phenoxy LXA4] | up to 75%
CCCCCC(C)(O)/C=C/C=C\C=C\C=C\[C@@H](O)[C@@H](O)CCCC(=O)O (some centres unmarked) [15-R/S-methyl LXA4] | up to 75%
